Whole data set: some 33,000 sequences, median “E-score (-0.5 to 0.5)” near -0.0059, cut for the highest 2% near 0.26. The list shows a part of the results.
Biological target: T1, Cin5 (UniProt P40917)
T1 sequence: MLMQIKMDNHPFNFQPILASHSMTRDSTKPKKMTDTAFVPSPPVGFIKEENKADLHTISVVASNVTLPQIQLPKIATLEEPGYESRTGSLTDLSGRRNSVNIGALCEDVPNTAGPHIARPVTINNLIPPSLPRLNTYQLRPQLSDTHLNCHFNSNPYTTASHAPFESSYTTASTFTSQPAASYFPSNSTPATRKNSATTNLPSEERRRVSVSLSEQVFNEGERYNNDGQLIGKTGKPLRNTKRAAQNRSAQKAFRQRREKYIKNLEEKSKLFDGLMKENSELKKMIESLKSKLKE
Assay: PBM E-score (8-mer binding enrichment) (E-score (-0.5 to 0.5)); higher = stronger / more preferred TF binding
Details: protein concentration: 100 nM; construct: GST-full length
Summary of the method: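 Yeast transcription factors, full-length or as DNA-binding domains, were expressed with a GST tag using PURExpress in vitro transcription/translation. At about 100-200 nM they were applied to universal all-10-mer Agilent arrays, double-stranded by primer extension on fresh or once-stripped slides. Fluorescent anti-GST detected bound protein, and masliner normalised the scans. E-scores for ungapped eight-base words, pooled with reverse complements, came from the Universal PBM Analysis Suite.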

Sequence | PBM E-score
ATCCAAAC | 0.19
CGGCGCGC | -0.0242
AACCAGCC | -0.11
AGATTCAC | -0.0994
CTTATTTA | 0.164
TAGGCCGA | -0.22
AAAAGGTC | -0.196
CTGTTTTA | 0.195
CAACATGC | 0.117
CGAGTGGA | -0.14
GCACCGGA | -0.195
CCAATACC | 0.0345
CGTCCGTA | 0.045
ACCTAGAT | 0.0544
CAACAATC | 0.209
CTTGTCCA | 0.0549
CAACTCGC | 0.159
CCCTCTAA | -0.2
ATAGCGAA | 0.162
GTCACAGA | 0.15
CACGTACG | -0.0318
TGAGAGAA | 0.0296
AGACGGTC | -0.165
ATACAGTA | 0.124
CAGCCGCG | 0.0208

Exported as tab-separated lines: part of the list above.
Sequence	PBM E-score
AACCAGCC	-0.11
AGATTCAC	-0.0994
CTTATTTA	0.164
TAGGCCGA	-0.22
AAAAGGTC	-0.196

Following part:

Sequence | PBM E-score
CCGGGCAG | -0.271
TATTTCCA | 0.0646
CGGAGCCC | -0.336
AGAAGACA | 0.00376
AGGAGAGC | -0.394
CTATAGCA | 0.0316
AAGCGTTG | -0.0172
ACCGTGAC | -0.108
ACTTGACC | -0.117
AAAAATGG | 0.183
TCCATACA | 0.069
CGTGGTAC | -0.222
GGCTCACA | -0.0409
GACACGTA | -0.0377
CATGTCGG | 0.0346
CAGCGTAG | -0.0461
AAGGACCG | -0.0654
AGCGTCTC | -0.169
CATTCAAG | -0.0484
CTACTTAA | -0.0293
GAGTATGC | 0.0732
AGTCCTAG | -0.26
CCTCCGTA | -0.0143
CTCCGGTC | -0.18
GAATGGCC | 0.0115

Sequence | PBM E-score
CAGTCGTC | -0.182
CATCGAGC | 0.0681
CCTCCTGA | -0.173
GGACTTAC | -0.103
ATGAGATA | 0.183
TCCGAGGA | -0.124
CCCGTCTC | -0.199
CCGGTCCG | -0.145
GCACCCAA | -0.0435
ATGGGTTG | 0.211
CTAAGCAG | 0.042
TCAATCCA | 0.133
GCGATCAA | -0.0741
GTCATGTA | -0.0945
GATTGGCA | -0.0885
CGTAGGCC | -0.0722
GCCCTCGA | -0.22
AGCGTATC | -0.129
CTACCCTC | -0.0575
ACCAGCAA | 0.11
ACGAGCCT | -0.198
AGCTAGAC | -0.135
ACTCCGGC | 0.103
GATGCTAA | 0.147
AAGCATAA | 0.0942

Another view of part of the listing above:
Sequence	PBM E-score
CCGGTCCG	-0.145
GCACCCAA	-0.0435
ATGGGTTG	0.211
CTAAGCAG	0.042
TCAATCCA	0.133
GCGATCAA	-0.0741

More records follow:

Sequence | PBM E-score
GACAACTA | 0.157
ATCGTAGC | 0.0582
AAAGAGAC | 0.0341
ATGCATCG | 0.098
GAATGTTA | 0.118
AGCGTCCG | -0.102
AGTGTGAA | 0.202
AATTTAGG | 0.168
ACGGCGAC | -0.0622
CGGATTTA | 0.136
CCAGCAAC | -0.0338
AGAGGCAT | -0.0753
AGACATAC | 0.0227
CATTCGCG | 0.127
CGACGGGC | -0.112
CTAACGGC | -0.0688
CAAGCATG | -0.0243
CAATTCAA | 0.0846
ACCTTAAT | 0.11
AATCGGGC | -0.027
GGATTGCC | -0.111
ATTTAAAT | 0.21
ACACGAGC | -0.0543
ATGACTCG | -0.167
AACTTAGC | -0.0121

Sequence | PBM E-score
ACAATCCA | 0.209
AGATAAAG | 0.0515
AGTGTTTA | 0.178
CAGCTGCC | -0.0182
AGCCAAGA | 0.0653
ATTTCGGC | 0.0403
CCCTTTGC | 0.0273
AGTGACGG | 0.0763
ACTTTGCC | 0.0713
AGAGAAAA | 0.0608
GTATATAA | 0.222
ATTGGACG | 0.0343
GTCAGTGA | -0.0149
TCCGATCA | 0.112
ACATATAT | 0.21
ACGACGGC | -0.108
CACTACGG | 0.00482
ATGGATTC | -0.0177
AACCCCGG | -0.176
ACCCCTGA | 0.00839
ACTCTGTG | 0.0463
CCACATCA | 0.147
AAGGTCAT | -0.0122
AAAAAAGT | 0.0794
CTGTAACA | -0.0859

Sequence | PBM E-score
CGGTGCCC | -0.259
AATTGAGT | 0.205
CAATGTCA | 0.136
ACTATCGG | 0.0455
CTTCCGTA | 0.192
TCACGGCA | 0.09
CCGAGGCG | -0.154
TGGACTAA | 0.0142
AGCAAAAA | 0.0923
ACACACGT | -0.0545
ATCCAAGG | 0.00453
GGATGACA | 0.212
CTTAGTTA | 0.139
ACAGTCGG | -0.0373
TAACACGA | 0.117
AGTCCTAA | -0.212
CATTCCAC | 0.0242
AACCATAG | -0.109
GGCAAGCA | -0.188
ACTGTGAC | 0.106
CTGCTCAA | -0.156
GGCTTAGA | -0.133
AACTCCAG | -0.151
CTGGGACC | -0.316
CCGCGATC | 0.051

Sequence | PBM E-score
GCGGAAGC | -0.177
AATAAGGA | -0.0468
ATTTAAAG | 0.0881
AGTTGGCA | 0.00307
ACTTCACT | 0.128
GCAATGAA | 0.208
GTGATAGA | -0.026
AGGTCAGG | -0.176
ATCTGGAC | -0.276
GGATTTCA | 0.155
ATTTTAGC | -0.00206
TATGGGCA | -0.063
CGCGTGTC | 0.0724
TGTTTAAA | 0.126
GCGGCCCC | -0.319
GAAAAGCC | -0.137
ATCATACA | 0.205
GAACAAGC | 0.0364
ATCATTAG | 0.136
ACCTGGTA | -0.0843
ATTAGGTG | 0.131
ACAGCTAA | -0.122
CGCTCATC | -0.0643
GCGGAAGA | 0.0917
CTTGGTCA | 0.0155

Sequence | PBM E-score
GCACGCTA | -0.127
AGGGCTAC | -0.235
ATGGGTCC | 0.0118
AGCAGCTC | -0.0828
CAGATCGC | -0.023
AGCGGGAG | -0.135
GGGTCACC | -0.297
ATATCCCC | 0.0837
CGGTCACG | -0.125
GCCGGCTA | -0.142
AGCAAACC | 0.186
ACGGTCCC | -0.338
CTGACGAA | 0.185
AGAGTCGA | -0.00566
CCCCACCA | 0.0733
ATGGGATC | 0.0284
GACGCTAA | -0.147
GCACTGCA | -0.0484
ATCTAGTC | 0.0253
AAACTTAC | 0.0915
AAAACTGT | 0.138
CGTTATGA | -0.00703
AGCTAAAC | -0.0522
CGTCCTCC | -0.139
ACGCGAAA | 0.203

Copied from the list:
PBM E-score, AGCAAACC is entered as 0.186
PBM E-score, ACGGTCCC is entered as -0.338
PBM E-score, AGGGCTAC is entered as -0.235

Next part.

Sequence | PBM E-score
CTCGATCA | 0.0224
AGTTGATA | 0.148
AGTCACTC | 0.0223
CTGAACAG | -0.0256
GACTCACA | -0.0473
CTGGAACA | 0.061
GTCCCGCA | -0.202
GCGCTGCA | 0.0806
CCCGCTGC | -0.096
CGCGCTGC | 0.0167
GTCTTATA | 0.0235
ACAGGGCA | 0.0341
CACCTGTC | -0.0719
AGCACTCC | -0.0214
GGTATTCA | 0.105
CAGATAAG | -0.0973
CGCCCCCG | -0.329
ACTTACGC | 0.0171
TGGATGAA | 0.138

— the supplement of paper PMC3334620
